Assay results as given in article PMC12431657, “Discovery and mechanistic insights of dibenzoylmethane as a broad spectrum inhibitor of coronavirus” (PLOS Pathogens, 2025).
Counter-ions that a name gives are not always drawn. Like-named read-outs stand apart in the source and are kept apart here. About 60 (2%) of roughly 3,300 compounds showed an effect of 50% or more. This is one part of the list. Numbered stars: 1 amine (or outer) side, 2 acyl side, 3 side chain; on linkers, the order of the positions; unused ones are H or OH. Bridge positions count the residues as written; N and C are the ends. Square brackets hold non-standard residues; d marks the D form. Peptide text beside a SMILES is read from it. hTyr(3S-OH,4S-OH,3'-OSO3H) = N[C@H](C(=O)O)[C@H](O)[C@@H](O)c1ccc(O)c(OS(=O)(=O)O)c1; Orn(4R-OH,5R-OH) = O=C([C@H](C[C@@H](O)[C@@H](O)N[*:3])N[*:1])[*:2]; Pro(3S-OH,4S-Me) = C[C@H]1CN[C@H](C(=O)O)[C@H]1O; Gln(3R-OH) = NC(=O)C[C@@H](O)[C@H](N)C(=O)O; Hyp = O=C(O)[C@@H]1C[C@@H](O)CN1

System: HCoV-OC43
Set-up: species or system RD; HTS, protection from HCoV-OC43 induced cell death, luminescent cell viability (CellCounting-Lite 2.0), inhibition rate
Settings: 24 h post infection, 1 h compound pre-incubation, 10 µM, inhibitor

| SMILES | OC43 Inhibition rate [%] | OC43 Inhibition rate (OC43 Inhibition rate, 24 h) [%] |
| --- | --- | --- |
| Nc1ccc(C(=O)O)cc1 [4-Aminobenzoic acid] | -0.3 | – |
| CC(C)c1ccc2c(c1)CC[C@H]1[C@](C)(CN)CCC[C@]21C [Leelamine (hydrochloride)] | -3 | – |
| CC(C)C[C@H](NC(=O)CN)C(=O)O [Glycyl-L-leucine] | -0.7 | – |
| COc1c(C)c2c(c(O)c1C/C=C(\C)CCC(=O)O)C(=O)OC2 [Mycophenolic acid] | 36.2 | – |
| COC(=O)[C@H]1O[C@@H](Oc2cc3oc(-c4ccccc4)cc(=O)c3c(O)c2O)[C@H](O)[C@@H](O)[C@@H]1O [Baicalin methyl ester] | -0.4 | – |
| O[C@H](c1ccccc1)[C@H](O)c1ccccc1 [(R,R)-(+)-Hydrobenzoin] | 0 | – |
| Cc1occc1SSc1ccoc1C [Bis(2-methyl-3-furyl)disulfide] | -1 | – |
| C[C@H](CC[C@@]1(O)O[C@H]2C[C@H]3[C@@H]4CC=C5C[C@@H](O[C@@H]6O[C@H](CO)[C@@H](O[C@@H]7O[C@@H](C)[C@H](O)[C@@H](O)[C@H]7O)[C@H](O)[C@H]6O[C@@H]6O[C@@H](C)[C@H](O)[C@@H](O)[C@H]6O)CC[C@]5(C)[C@H]4CC[C@]3(C)[C@H]2[C@@H]1C)CO[C@@H]1O[C@H](CO)[C@@H](O)[C@H](O)[C@H]1O [Protodioscin] | -6 | – |
| CCCCOC(=O)c1ccccc1C(=O)O [Monobutyl phthalate] | 0.6 | – |
| CC1=CC(=O)CC1 [3-Methyl-2-cyclopenten-1-one] | 1.5 | – |
| CC1(C)CC[C@]2(C(=O)O)CC[C@]3(C)C(=CC[C@@H]4[C@@]5(C)CC[C@@H](O)C(C)(C)[C@@H]5CC[C@]43C)[C@@H]2C1 [3-Epioleanolic acid] | -0.6 | – |
| CCCCCCCCCCCCCCCCCCCCCC(=O)O[C@H]1CC[C@@]2(C)C(=CC[C@H]3[C@@H]4CC[C@H]([C@H](C)CCCC(C)C)[C@@]4(C)CC[C@@H]32)C1 [Cholesteryl behenate] | 0 | – |
| CC1(C)CC[C@]2(C(=O)O[C@@H]3O[C@H](CO)[C@@H](O)[C@H](O)[C@H]3O)CC[C@]3(C)C(=CC[C@@H]4[C@@]5(C)CC[C@H](O[C@@H]6O[C@H](CO)[C@@H](O)[C@H](O[C@@H]7O[C@H](CO)[C@@H](O)[C@H](O)[C@H]7O)[C@H]6O[C@@H]6O[C@H](CO)[C@@H](O)[C@H](O)[C@H]6O)[C@@](C)(CO)[C@@H]5CC[C@]43C)[C@@H]2C1 [Araloside VII] | 3.9 | – |
| Cc1ncc(CO)c(CN)c1O [Pyridoxylamine (dihydrochloride)] | – | -0.9 |
| C=C(C)[C@H](C)c1cc(/C=C/C(=O)c2ccc(O)cc2)c(OC)cc1O [Licochalcone E] | 55.6 | – |
| O=C(CO)[C@@H](O)[C@H](O)[C@H](O)COP(=O)(O)O [D-Fructose-6-phosphate (disodium) salt] | -9.1 | – |
| CCCC(=O)c1c(O)c(CC2=C(O)C(C)(C)C(=O)C(C(C)=O)=C2O)c(O)c(Cc2c(O)c(CC3=C(O)C(C)(C)C(=O)C(C(C)=O)=C3O)c(O)c(C(=O)CCC)c2O)c1O [Dryocrassin ABBA] | -1.8 | – |
| COc1cc(O)c2c(=O)cc(-c3ccc(O)c(OC)c3)oc2c1 [Velutin] | 34.1 | – |
| O=c1c(-c2ccc(O)cc2)coc2cc(O)ccc12 [Daidzein] | 0.2 | – |
| C[C@@H]1O[C@@H](Oc2cc(O)c3c(=O)c(O)c(-c4ccc(O)cc4)oc3c2)[C@H](O)[C@H](O)[C@H]1O [Kaempferol-7-O-rhamnoside] | 6.9 | – |
| CC1=C(/C=C/C(C)=C/C=C/C(C)=C/C=C/C=C(C)/C=C/C=C(\C)C=O)C(C)(C)CCC1 [β-Apo-8'-carotenal] | -0.2 | – |
| CC1(C)CC[C@]2(C(=O)O)CC[C@]3(C)C(=CC[C@@H]4[C@@]5(C)CC[C@H](O)C(C)(C)[C@@H]5CC[C@]43C)[C@@H]2C1 [Oleanolic Acid] | -1.6 | – |
| C/C(=C\CC[C@@H](C)[C@H]1CC[C@@]2(C)C3=C(CC[C@]12C)[C@@]1(C)CCC(=O)C(C)(C)[C@@H]1CC3=O)C(=O)O [Ganoderic acid DM] | 0.9 | – |
| C[n+]1cccc(C(N)=O)c1 [TRIA-662] | 1.7 | – |
| O=C(O)[C@H](O)[C@@H](O)[C@H](O[C@@H]1O[C@H](CO)[C@H](O)[C@H](O)[C@H]1O)[C@H](O)CO [Lactobionic acid] | 0.1 | – |
| CCCCCCCC/C=C\CCCCCCCC(=O)NCCO [Oleoylethanolamide] | 9.5 | – |
| C=C[C@H](O)CC(=NOS(=O)(=O)O)S[C@@H]1O[C@H](CO)[C@@H](O)[C@H](O)[C@H]1O [Progoitrin] | 0.7 | – |

Whole records as entered above. Order of values: OC43 Inhibition rate [%]	OC43 Inhibition rate (OC43 Inhibition rate, 24 h) [%]
COc1c(C)c2c(c(O)c1C/C=C(\C)CCC(=O)O)C(=O)OC2 [Mycophenolic acid] is listed with 36.2	–
CC1(C)CC[C@]2(C(=O)O)CC[C@]3(C)C(=CC[C@@H]4[C@@]5(C)CC[C@@H](O)C(C)(C)[C@@H]5CC[C@]43C)[C@@H]2C1 [3-Epioleanolic acid] is listed with -0.6	–
CC(C)C[C@H](NC(=O)CN)C(=O)O [Glycyl-L-leucine] is listed with -0.7	–

Continued:

| SMILES | OC43 Inhibition rate [%] | OC43 Inhibition rate (OC43 Inhibition rate, 24 h) [%] |
| --- | --- | --- |
| CC(C)C[C@H](O)C(=O)O [(S)-Leucic acid] | 1.1 | – |
| COc1ccc(/C=C/C(=O)c2ccc(OC)cc2)cc1 [4,4'-Dimethoxychalcone] | 10.7 | – |
| CC(C)=CC/C=C(\C)[C@H]1CC[C@]2(C)[C@@H]1[C@H](O)C[C@@H]1[C@@]3(C)CC[C@H](O[C@@H]4O[C@H](CO)[C@@H](O)[C@H](O)[C@H]4O[C@@H]4O[C@H](CO)[C@@H](O)[C@H](O)[C@H]4O)C(C)(C)[C@@H]3CC[C@]12C [Ginsenoside Rg5] | 7.5 | – |
| O=c1c(O[C@@H]2O[C@H](CO)[C@@H](O)[C@H](O)[C@H]2O)c(-c2ccc(O)c(O)c2)oc2cc(O)cc(O)c12 [Isoquercitrin] | – | 0.1 |
| C=C1CC[C@H]2C[C@@H]1C2(C)C [β-Pinene] | 0 | – |
| C[C@@H](O)[C@@H]1NC(=O)[C@@H](N)C[C@@H](O)[C@@H](O)NC(=O)[C@@H]2[C@@H](O)[C@@H](C)CN2C(=O)[C@H]([C@H](O)CC(N)=O)NC(=O)[C@H]([C@H](O)[C@@H](O)c2ccc(O)c(OS(=O)(=O)O)c2)NC(=O)[C@@H]2C[C@@H](O)CN2C1=O [FR179642] (H-[Orn(4R-OH,5R-OH)]T[Hyp][hTyr(3S-OH,4S-OH,3'-OSO3H)][Gln(3R-OH)][Pro(3S-OH,4S-Me)]; lactam 1-C) | 4.7 | – |
| C[C@@H]1O[C@@H](OC[C@H]2O[C@@H](Oc3c(-c4ccc(OCCO)c(OCCO)c4)oc4cc(OCCO)cc(O)c4c3=O)[C@H](O)[C@@H](O)[C@@H]2O)[C@H](O)[C@H](O)[C@H]1O [Troxerutin] | -0.2 | – |
| Nc1nc(N)nc(NC2CC2)n1 [Cyromazine] | 0 | – |
| COc1cc(-c2cc(=O)c3c(O)cc(O[C@@H]4O[C@H](CO)[C@@H](O)[C@H](O)[C@H]4O[C@@H]4OC[C@](O)(CO)[C@H]4O)cc3o2)ccc1O [3'-Methoxyapiin] | 0.1 | – |
| O=C(O)C(=O)Cc1ccc(O)cc1 [4-Hydroxyphenylpyruvic acid] | 0.9 | – |
| CCC(C)C(=O)O[C@@H]1[C@@H](OC(C)=O)[C@]2(C)[C@H](C(C)=O)CC[C@@]23O[C@]32CC[C@H]3C[C@@H](O[C@H]4C[C@@H](OC)[C@H](O[C@@H]5O[C@H](C)[C@@H](O)[C@@H](OC)[C@H]5O)[C@@H](C)O4)CC[C@]3(C)[C@@H]12 (stereo partly drawn) [Tenacissoside H] | 1.3 | – |
| C[C@]12C=CC(=O)C=C1CC[C@H]1[C@@H]3C[C@@H](O)[C@](O)(C(=O)CO)[C@@]3(C)C[C@H](O)[C@@]12F [Triamcinolone] | 0 | – |
| C=C1CC[C@@]2(OC1)O[C@H]1C[C@H]3[C@@H]4CC=C5C[C@@H](O)C[C@@H](O)[C@]5(C)[C@H]4CC[C@]3(C)[C@H]1[C@@H]2C [Neoruscogenin] | 7.4 | – |
| CCC/C=C\C=C\CCCCCCCCCO [Bombykol] | 1.1 | – |
| COc1ccc2c(c1)OC(O)C(=O)N2O (stereo not drawn) [DIMBOA] | -0.2 | – |
| COc1c(O)cc2oc(-c3ccc(O)cc3)cc(=O)c2c1O [Hispidulin] | -0.2 | – |
| O=C(O)CC(O)(CC(=O)O)C(=O)O [Lithium citrate (tetrahydrate)] | – | 0.2 |
| O=C1O[C@H]([C@@H](O)CO)C(=O)C1=O [Dehydroascorbic acid] | 2.7 | – |
| CC(=O)N[C@@H](CCCN=C(N)N)C(=O)O [N-Acetyl-L-arginine] | -0.3 | – |
| CCCCCCCC/C=C\CCCCCCCC(=O)NCc1ccccc1 [N-Benzyloleamide] | 56.9 | – |
| Cc1ncc(CO)c(CN)c1O [Pyridoxylamine] | – | -0.8 |
| COc1cc(C2Oc3cc([C@H]4Oc5cc(O)cc(O)c5C(=O)[C@@H]4O)ccc3OC2CO)ccc1O (stereo partly drawn) [Silybin] | 3.3 | – |
| O=c1cc(-c2ccccc2)oc2cc(O)c(O)c(O)c12 [Baicalein] | 0.3 | – |
| C[C@H](CCC(=O)O)[C@H]1CC[C@H]2[C@@H]3[C@H](O)C[C@H]4C[C@H](O)CC[C@]4(C)[C@H]3C[C@H](O)[C@]12C [Allocholic acid] | -0.1 | – |
| C=C1C[C@]2(O)O[C@@]3(CC2=C(C)C)[C@@H](C)CC[C@@H]13 [Isocurcumenol] | -0.2 | – |
| C[C@H]1CC[C@]2(C(=O)O)CC[C@]3(C)C(=CC[C@@H]4[C@@]5(C)CC[C@H](O[C@@H]6OC[C@@H](O)[C@H](O)[C@H]6O[C@@H]6O[C@H](CO)[C@@H](O)[C@H](O)[C@H]6O)C(C)(C)[C@@H]5CC[C@]43C)[C@@H]2[C@]1(C)O [Ilexoside D] | 5.3 | – |
| CCCC(=O)OC(CC(=O)[O-])C[N+](C)(C)C (stereo not drawn) [Butyrylcarnitine] | -8.1 | – |
